From ChEMBL document CHEMBL3988442, “University of Dundee, Small-Polar-MMV Screening Library” (2021).

Protein sequences, listed by entry. Tags and fused reporters are not part of them.
UniProt P9WPC5, whole entry: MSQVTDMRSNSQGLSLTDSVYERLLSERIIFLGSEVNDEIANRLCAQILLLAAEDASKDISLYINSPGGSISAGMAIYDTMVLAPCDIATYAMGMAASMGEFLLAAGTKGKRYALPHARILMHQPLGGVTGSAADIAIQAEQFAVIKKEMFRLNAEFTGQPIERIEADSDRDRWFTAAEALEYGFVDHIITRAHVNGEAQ
UniProt P9WPC3, whole entry partner: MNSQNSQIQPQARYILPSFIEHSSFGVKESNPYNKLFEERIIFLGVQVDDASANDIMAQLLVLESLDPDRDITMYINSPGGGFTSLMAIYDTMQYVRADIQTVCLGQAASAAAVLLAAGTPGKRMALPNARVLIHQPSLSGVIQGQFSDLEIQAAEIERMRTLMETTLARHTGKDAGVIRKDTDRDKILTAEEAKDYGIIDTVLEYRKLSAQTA
UniProt I6X8D2, whole entry: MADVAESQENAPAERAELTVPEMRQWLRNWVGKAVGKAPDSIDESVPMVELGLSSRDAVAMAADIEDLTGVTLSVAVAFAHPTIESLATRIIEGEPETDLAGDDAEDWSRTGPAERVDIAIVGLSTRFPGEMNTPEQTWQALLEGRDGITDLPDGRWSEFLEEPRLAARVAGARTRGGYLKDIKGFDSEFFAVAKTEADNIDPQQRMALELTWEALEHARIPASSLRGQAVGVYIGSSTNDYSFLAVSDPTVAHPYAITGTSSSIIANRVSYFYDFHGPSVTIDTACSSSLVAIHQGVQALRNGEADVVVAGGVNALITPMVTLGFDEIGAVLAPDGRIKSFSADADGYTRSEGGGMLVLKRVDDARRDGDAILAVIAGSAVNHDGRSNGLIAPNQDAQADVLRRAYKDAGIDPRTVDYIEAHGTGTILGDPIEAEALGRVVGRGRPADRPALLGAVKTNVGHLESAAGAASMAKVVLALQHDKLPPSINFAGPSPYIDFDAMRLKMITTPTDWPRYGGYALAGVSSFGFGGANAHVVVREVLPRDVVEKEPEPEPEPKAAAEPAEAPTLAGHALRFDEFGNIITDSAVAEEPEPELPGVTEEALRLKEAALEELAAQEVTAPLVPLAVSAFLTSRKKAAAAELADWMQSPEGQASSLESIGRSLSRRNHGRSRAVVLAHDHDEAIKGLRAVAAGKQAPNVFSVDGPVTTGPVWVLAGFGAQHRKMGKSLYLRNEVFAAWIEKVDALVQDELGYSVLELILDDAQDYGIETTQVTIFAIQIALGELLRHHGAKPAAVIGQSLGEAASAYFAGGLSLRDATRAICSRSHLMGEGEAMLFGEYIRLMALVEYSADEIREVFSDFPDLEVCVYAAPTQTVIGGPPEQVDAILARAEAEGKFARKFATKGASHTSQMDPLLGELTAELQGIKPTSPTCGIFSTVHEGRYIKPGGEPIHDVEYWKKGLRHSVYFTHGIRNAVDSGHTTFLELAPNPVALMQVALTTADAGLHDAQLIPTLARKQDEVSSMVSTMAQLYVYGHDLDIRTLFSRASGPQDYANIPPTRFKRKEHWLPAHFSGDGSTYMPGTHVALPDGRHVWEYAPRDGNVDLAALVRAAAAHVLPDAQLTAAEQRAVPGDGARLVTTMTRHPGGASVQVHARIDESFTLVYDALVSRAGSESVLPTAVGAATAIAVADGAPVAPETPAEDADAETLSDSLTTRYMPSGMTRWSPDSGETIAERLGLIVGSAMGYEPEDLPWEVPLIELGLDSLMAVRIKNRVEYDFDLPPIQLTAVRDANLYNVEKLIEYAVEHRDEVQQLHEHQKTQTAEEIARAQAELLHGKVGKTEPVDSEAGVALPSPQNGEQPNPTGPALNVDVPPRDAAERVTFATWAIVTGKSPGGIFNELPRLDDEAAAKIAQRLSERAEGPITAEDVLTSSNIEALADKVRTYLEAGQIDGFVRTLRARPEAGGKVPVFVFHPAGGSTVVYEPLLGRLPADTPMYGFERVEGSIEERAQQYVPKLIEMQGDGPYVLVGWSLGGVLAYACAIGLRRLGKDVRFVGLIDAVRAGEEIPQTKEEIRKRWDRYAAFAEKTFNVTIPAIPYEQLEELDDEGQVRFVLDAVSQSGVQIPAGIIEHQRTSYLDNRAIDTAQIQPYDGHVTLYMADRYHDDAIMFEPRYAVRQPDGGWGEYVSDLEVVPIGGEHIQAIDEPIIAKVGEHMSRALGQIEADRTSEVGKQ

Leishmania in macrophages: 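Cell assay of Leishmania donovani living inside macrophages; the read-out is not stated. Tested at 30 µM. Direction is inferred from retests: higher values go with stronger inhibition. Size under these conditions: about 69,000 compounds, about 1,000 of them at 50% or above in at least one test.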
Toxoplasma: 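Assay of Toxoplasma gondii numbers, read through their beta-galactosidase reporter with a colour substrate. Concentration: 10 µM. The record gives no direction; the compounds picked for IC50 retests had high values, so higher reads as fewer parasites. Size under these conditions: about 67,000 compounds, about 260 of them at 50% or above in at least one test.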
ClpP1P2: 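ClpP1P2, Mycobacterium tuberculosis (UniProt P9WPC5 and UniProt P9WPC3). Protease assay of ClpP1P2, read by the AMC dye that it sets free. Tested at 50 µM. Direction is inferred from only a few compounds that gave an IC50; most scored high, so higher reads as stronger inhibition. Most other retested compounds had strongly negative values. Size under these conditions: about 69,000 compounds, about 10 of them at 50% or above in at least one test.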
T. brucei: 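Whole-parasite assay of Trypanosoma brucei over 72 hours; the read-out is not stated. Concentration: 30 µM. The record gives no direction; compounds that gave an IC50 in retests scored well above the rest, so higher reads as stronger inhibition. Values scatter widely below zero; nearly all retest evidence comes from the higher of the two concentrations used. About 64,000 compounds were tested under these conditions; 1.5% (about 940) showed 50% or more at least once.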
Pks13 thioesterase: 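Polyketide synthase Pks13, Mycobacterium tuberculosis (UniProt I6X8D2). Enzyme assay of the thioesterase domain of polyketide synthase 13; the read-out is not stated. Compounds at 30 µM. The record gives no direction; the compounds picked for IC50 retests had high values, so higher reads as stronger inhibition. Size under these conditions: about 67,000 compounds, about 300 of them at 50% or above in at least one test.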

The filed quantity is “Percent Effect” (%).
The record does not define 0% and 100%; most values in the screen are far below 50% and negative numbers occur (in some assays of this library far below -100).
Compounds were drawn at random from those tested, without regard to their results.
A dash means the value is not listed here; it may have been measured.

Compound	Leishmania in macrophages	Toxoplasma	ClpP1P2	T. brucei	Pks13 thioesterase
CC(=O)NCCNC(=O)Nc1ccc(C)cc1OCc1ccccc1	21.94	9.744	10.52	-9.202	-60.37
CCOc1cccc(CNc2ccccc2C(F)(F)F)c1O	4.256	2.693	16.88	-23.57	30.18
Cc1cccc2c1nc(CCO)n2-c1ccc(N)nc1	25.96	9.486	-16.07	-10.62	-0.7257
O=C(Nc1cc(C(F)(F)F)c[nH]c1=O)C1CCCCN1 (stereo unspecified)	-	-	-0.7724	-	0.8924
Cc1cc(CN2CCC(CNC(=O)Cc3ccc(F)cc3)C2)[nH]n1 (stereo unspecified)	26.26	3.876	-3.428	-256.6	17.05
Cc1ncncc1C(=O)N1CCCN(Cc2ncc(Cl)n2C)CC1	-13.23	2.709	-7.541	-50.11	6.104
Cc1nnc(CN(C)Cc2ccc(C(=O)Nc3sccc3C#N)cc2)o1	2.161	-4.472	4.019	0.6523	-19.92
CNS(=O)(=O)CC(=O)NCc1cc2c(s1)CCC(C)(C)C2	-1.205	2.869	-1.12	-0.5462	-77.54
CC(C)CCC(=O)N1CCC2(CC1)OCCO2	-1.941	14.72	8.828	-33.17	-0.6622
Cc1cc(CCC(=O)NCc2ncc[nH]2)ccc1Br	-9.423	4.831	2.34	-7.151	-2.412
Clc1cc(NCc2ccncc2)nc2[nH]ccc12	-39.55	7.987	17.19	-24.9	49.35
COCCN1CCN(CC(=O)N(C)Cc2ccsc2)CC1	14.88	-5.681	-0.9561	-6.209	-1.36
c1ccc(CN2Cc3ccnn3CC(COCc3cccnc3)C2)nc1 (stereo unspecified)	21.36	2.315	-3.389	-197.4	-29.03
[H][C@]12CC[C@]([H])(CN(S(=O)(=O)N(C)C)C1)N(Cc1ccc3[nH]ccc3c1)C2	25.6	17.89	-	-32.7	-
O=C(NCCc1cccc(F)c1)c1nc2c(s1)CCCN2C(=O)C1CC1	44.4	-0.9726	-12.14	-24.39	-142.8
Cc1cccc(OC2(C(=O)O)CCN(C(=O)CCc3ccco3)CC2)c1	-31.24	19.55	-10.2	-73.95	-6.244
CCCN1CCN(C(=O)Cc2nc(-c3ccco3)oc2C)CC1	32.99	-1.274	7.997	6.24	49.45
CC(C)N1CCC2(CC1)CC(c1cccnc1)C(=O)N2 (stereo unspecified)	-6.002	-5.211	4.722	-25.73	-42.46
[H][C@]12COC[C@@H](NS(C)(=O)=O)[C@@]1([H])CN(Cc1ccco1)C2	5.751	4.099	-	-9.966	-
COc1cccc(CN2CC(O)CN(C(=O)C3CC3)CC2=O)c1OC (stereo unspecified)	-5.558	4.633	9.881	-21.96	2.306
NC(CC1CCCC1)c1ccc(Oc2ccccc2)cc1 (stereo unspecified)	99.72	55.94	-19.66	101.8	-10.55
CCOc1cccc(CNC(=O)NCC(O)c2cccc(F)c2)c1 (stereo unspecified)	32.26	10.17	4.623	20.97	-9.92
CN(C)C[C@@H]1CN(C(=O)Cc2ccccc2)C[C@@H]1CO	22.9	11.07	-2.71	-7.454	-4.43
O=C(O)C(F)(F)F.[H][C@]12CC[C@@]3(N=C(C)N(CC4CC4)C3=O)[C@@]1([H])CN(Cc1ccccc1C)C2	6.949	-33.55	-	-63.56	-
COCC(=O)N1CC[C@H]2C[C@H](C)O[C@@H]2C1	-	-	11.76	-	-38.55
CCC(CC)c1cc(CNC(=O)N2CCC(n3cncn3)CC2)on1	12.73	-1.681	0.1026	8.986	-28.73
OC1(CNc2ccccc2)CCNCC1	10.26	-16.72	-14.76	-	2.102
O=C(O)C(F)(F)F.[H][C@@]12CCN(S(=O)(=O)CC)C[C@]1([H])OCCN(Cc1cccnc1)C2=O	47.08	16.66	-	-17.95	-
O=C(O)C(F)(F)F.[H][C@]12CCN(C(=O)c3ccoc3)[C@@]1([H])CC[C@H](COCCN(C)C)O2	20.2	-9.235	-	21.89	-
O=C(O)C(F)(F)F.O=C(c1n[nH]c2c1CCN(Cc1nccs1)C2)N1CCCC1	10.02	0.4785	-	-8.274	-
CCN1CCN2CCCN(S(=O)(=O)c3ccc(C)cc3C)C2C1=O (stereo unspecified)	-11.97	13.27	8.152	8.732	-0.8629
O=C(NCCCn1cncn1)c1ccc(-c2ccccc2)[nH]c1=O	25.88	-10.92	-10.98	23.87	28.41
CC(=O)N1CCC2(CC1)CCN(S(=O)(=O)c1ccccc1)C2	-10.4	20.75	3.226	-16.99	-54.09
CCc1nnc2n1CCN(Cc1cc(Cl)c3c(c1)OCCO3)C2	5.459	22.08	-12.32	-	1.501
O=C(NC1CCCCC1)c1c(F)cccc1F	14.32	-10.22	-6.511	11.32	-17.59
O=C1CCC(c2ccccc2)=NN1CN1CCCCCC1	54.14	0.1092	10.45	-8.646	-1.21
Cc1ncsc1CN1CCOC(C)(C(=O)N2CCOCC2)C1 (stereo unspecified)	9.253	-	-0.5968	-	6.238
O=C(NCCc1ccccn1)[C@@H]1CC[C@@H]2[C@@H](CCN2Cc2ccoc2)O1	-	-	-13.5	-	-16.91
COCCn1cc(C(=O)N2CCCC2c2cccc(F)c2)ccc1=O (stereo unspecified)	6.072	-3.347	-16.69	-11.08	-10.81
CC1CCc2nn(CCNC(=O)c3cccs3)c(=O)cc2C1 (stereo unspecified)	-36.28	-1.69	12.93	-37.11	-14.62
NC(=O)NC(=O)CNC1(c2ccc(Cl)cc2)CCCC1	20.04	-16.49	-1.551	-19.17	11.15

For reference, 3 entries once more:

CCOc1cccc(CNc2ccccc2C(F)(F)F)c1O gave Leishmania in macrophages: 4.256%; Toxoplasma: 2.693%; ClpP1P2: 16.88%; T. brucei: -23.57%; Pks13 thioesterase: 30.18%.
Cc1cccc(OC2(C(=O)O)CCN(C(=O)CCc3ccco3)CC2)c1 gave Leishmania in macrophages: -31.24%; Toxoplasma: 19.55%; ClpP1P2: -10.2%; T. brucei: -73.95%; Pks13 thioesterase: -6.244%.
COCCN1CCN(CC(=O)N(C)Cc2ccsc2)CC1 gave Leishmania in macrophages: 14.88%; Toxoplasma: -5.681%; ClpP1P2: -0.9561%; T. brucei: -6.209%; Pks13 thioesterase: -1.36%.